# Values joined by “and” are separate entries in the source; they are usually repeats but may differ in a detail not shown here. Identical values can stand only once. Counter-ions that a name gives are not always drawn. The list shows a part of the results. Single values are uncertain here, since repeats match poorly.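 HEK293T cells were given each compound shortly before transfection with a reporter in which red mCherry is followed by the SARS-CoV-2 frameshift element and then GFP in the −1 frame, so GFP appears only after frameshifting.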
# Tested on: HEK293T
# Experiment: percent viability (nuclei count) relative to control; higher = more viable cells
# Conditions: 10 µM; 24 h
row,SMILES,percent viability
1,C#C[C@]1(O)CC[C@H]2[C@@H]3CCC4=CC(=NO)CC[C@@H]4[C@H]3CC[C@@]21CC (mixture of isomers) [norelgestromin],200%
2,NC(=NCCCCCCN=C(N)N=C(N)Nc1ccc(Cl)cc1)N=C(N)Nc1ccc(Cl)cc1,220%
3,COCCOC(=O)C1=C(C)NC(C)=C(C(=O)OC(C)C)C1c1cccc([N+](=O)[O-])c1 (stereo not given) [nimodipine],150% and 302%
4,O=S(=O)(O)CCCS(=O)(=O)O,398%
5,Cn1cnc([N+](=O)[O-])c1Sc1ncnc2[nH]cnc12 [Azathioprine],338% and 210%
6,Nc1nc2c(c(=O)[nH]1)C[C@@H](CCc1ccc(C(=O)N[C@@H](CCC(=O)O)C(=O)O)cc1)CN2 [lometrexol],133%
7,CCOC(=O)[C@H](CCc1ccccc1)N[C@@H](C)C(=O)N(CC(=O)O)C1Cc2ccccc2C1 [delapril],79.1%
8,CC(=O)Nc1ccc(S(=O)(=O)c2ccc(NC(C)=O)cc2)cc1 [acedapsone],198%
9,Cc1cc(O)c(S(=O)(=O)O)cc1Cc1cc(S(=O)(=O)O)c(O)cc1C [dicresulene],127%
10,CC1CNc2c(cccc2S(=O)(=O)N[C@@H](CCCNC(=N)N)C(=O)N2CC[C@@H](C)C[C@@H]2C(=O)O)C1 (stereo not given in full) [Argatroban],126% and 290%
11,C[C@H]1[C@H](NC(=O)/C(=N\OC(C)(C)C(=O)O)c2csc(N)n2)C(=O)N1S(=O)(=O)O,195%
12,O=C(c1cc(O)c(O)c(O)c1)c1ccc(O)c(O)c1O [exifone],53.4%
13,CNCCC(Oc1ccccc1OC)c1ccccc1 (stereo not given) [Nisoxetine·HCl],362%
14,CC(C)(C)CC(C)(C)c1ccc(O)c(-n2nc3ccccc3n2)c1 [octrizole],89.7%
15,Cc1c(C)c2c(c(C)c1O)CC[C@@](C)(CCC[C@H](C)CCC[C@H](C)CCCC(C)C)O2,248%
16,CC1(C)S[C@@H]2[C@H](/N=C/N3CCCCCC3)C(=O)N2[C@H]1C(=O)O [mecillinam],123%
17,CC(C)(CO)CCCCCCC(C)(C)CO [gemcadiol],59.7%
18,O=C(Nc1cccc(C(F)(F)F)c1)c1cc(Br)cc(Br)c1O [flusalan],128%
19,COC(=O)c1ccc2c(C(=Nc3ccc(N(C)C(=O)CN4CCN(C)CC4)cc3)c3ccccc3)c(O)[nH]c2c1 [Nintedanib],359%
20,CN1C(C)(C)CCCC1(C)C,213%

row,SMILES,percent viability
1,O=c1[nH]c2ccccc2n1CCN1CCN(c2cccc(C(F)(F)F)c2)CC1 [flibanserin],73.4%
2,CO[C@H]1O[C@@H]2O[C@@]3(C)CC[C@H]4[C@H](C)CC[C@@H]([C@H]1C)[C@@]24OO3 [artemether],152%
3,C=C(C)CNc1ccc(C(C)C(=O)O)cc1 (stereo not given) [alminoprofen],401%
4,NC(=O)c1cccnc1 [nicotinamide],378%
5,Nc1nnnn1-c1ccccc1 [fenamole],31.8%
6,CC(=O)N(c1onc(C)c1C)S(=O)(=O)c1ccc(N)cc1,270%
7,CC(C)NCC(O)COc1ccccc1C1CC1 (stereo not given) [procinolol],330%
8,NCCC(O)(P(=O)(O)O)P(=O)(O)O [Pamidronate·2Na·5H2O],151%
9,CCCCc1ccc2[nH]c(NC(=O)OC)nc2c1 [parbendazole],14.7%
10,CC[C@]1(O)C[C@@H]2CN(CCc3c([nH]c4ccccc34)[C@@](C(=O)OC)(c3cc4c(cc3OC)N(C)[C@H]3[C@@](O)(C(=O)OC)[C@H](OC(C)=O)[C@]5(CC)C=CCN6CC[C@]43[C@@H]65)C2)C1 [Vinblastine],28.2% and 12.3%
11,NC(Cc1c[nH]c2ccc(O)cc12)C(=O)O (stereo not given),302%
12,Clc1ccc(C(Cn2ccnc2)OCc2ccsc2Cl)c(Cl)c1 (stereo not given) [tioconazole],271%
13,OC[C@@H](O)[C@@H](O)[C@H](O)[C@H](O)CO [Bronchitol],340%
14,O=C(c1cccnc1)N1CCOCC1 [nicopholine],294%
15,O=S(=O)(O)Oc1ccc(C(c2ccc(OS(=O)(=O)O)cc2)c2ccccn2)cc1 [picosulfate],158%
16,CCC(c1ccccc1)c1noc(CCN(CC)CC)n1 (stereo not given),156%
17,CN(C)CC/C=C1/c2ccccc2COc2ccc(CC(=O)O)cc21 [Patanol],76.7%
18,COc1c(C)c2c(c(O)c1C/C=C(\C)CCC(=O)OCCN1CCOCC1)C(=O)OC2 [Mycophenolate mofetil],12.6%
19,CC(O)Cn1cnc2c1c(=O)n(C)c(=O)n2C (stereo not given) [proxyphylline],317%
20,COc1ccccc1O [Guaiacol],164%

# From the supplement of paper PMC8256030
